This is one part of the list.
The compounds below were run against Runt-related transcription factor 1 (Homo sapiens) + Core-binding factor subunit beta (Homo sapiens) (UniProt Q01196+Q13951) (assay: inhibitors of RUNX1 Runt–CBFb-SMMHC binding, primary screen, biochemical, FRET, Cerulean-Runt, Venus-CBFb-SMMHC, uHTS (AID 1434;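 further: 0% = DMSO wells and 100% = wells with excess untagged CBFb-SMMHC; inhibitors lower the FRET ratio by blocking Runt binding to CBFb-SMMHC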)). Conditions: Cerulean-Runt/Venus-CBFb-SMMHC FRET ratio 530/480, 1 h; retest duplicate average; at 20 µM; stronger effect = higher value.

Amino acid sequences for entries named in this document (tags omitted).
UniProt Q01196, whole entry, looked up: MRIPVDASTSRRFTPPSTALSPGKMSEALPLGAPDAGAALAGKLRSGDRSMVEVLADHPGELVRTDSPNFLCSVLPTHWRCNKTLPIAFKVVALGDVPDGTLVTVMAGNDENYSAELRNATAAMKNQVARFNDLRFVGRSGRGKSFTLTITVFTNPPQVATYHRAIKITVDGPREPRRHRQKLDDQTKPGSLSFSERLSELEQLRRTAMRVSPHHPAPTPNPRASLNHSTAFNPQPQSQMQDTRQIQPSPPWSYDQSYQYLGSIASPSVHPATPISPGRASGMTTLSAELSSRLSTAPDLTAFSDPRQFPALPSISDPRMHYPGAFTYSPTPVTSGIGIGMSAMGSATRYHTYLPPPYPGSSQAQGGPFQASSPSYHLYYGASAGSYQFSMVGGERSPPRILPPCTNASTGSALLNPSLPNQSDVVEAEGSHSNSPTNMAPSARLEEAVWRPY
UniProt Q13951, whole entry, looked up: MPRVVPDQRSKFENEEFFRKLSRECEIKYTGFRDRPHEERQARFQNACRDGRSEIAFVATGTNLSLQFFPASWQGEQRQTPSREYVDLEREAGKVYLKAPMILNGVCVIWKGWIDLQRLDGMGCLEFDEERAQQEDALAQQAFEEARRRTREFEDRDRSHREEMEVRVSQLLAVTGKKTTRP

Compound | inhibition
O=P(Nc1nccs1)(c1ccccc1)c1nc2ccccc2s1 (stereo unspecified) | 64.2%

Source: PubChem BioAssay AID1434 (Sanford-Burnham Center for Chemical Genomics, 2008)
